# This is one part of the list. Repeats are few or missing, and single values can be far off.
# Assays:
# Settings in all cases: RNA concentration 10 µM; fragment concentration 200 µM; 293 K
# [1] = test system: SARS-CoV-2 5'-UTR RNA; experiment: T2 signal reduction relative to ligand without RNA (fraction); higher = stronger binding
# [2] = test system: SARS-CoV-2 3'-UTR RNA; experiment: as above
# [3] = test system: SARS-CoV-2 5_SL6 RNA; experiment: waterLOGSY factor (bound vs free ligand) (ratio); higher = stronger binding
# [4] = test system: SARS-CoV-2 5_SL7 RNA; experiment: as above
# [5] = test system: SARS-CoV-2 frameshift pseudoknot (PK) RNA; experiment: as above
# [6] = test system: SARS-CoV-2 5_SL6 RNA; experiment: T2 signal reduction relative to ligand without RNA (fraction); higher = stronger binding
# [7] = test system: SARS-CoV-2 5_SL8 RNA; experiment: waterLOGSY factor (bound vs free ligand) (ratio); higher = stronger binding
# [8] = test system: SARS-CoV-2 5_SL5 RNA; experiment: T2 signal reduction relative to ligand without RNA (fraction); higher = stronger binding
# [9] = test system: SARS-CoV-2 5_SL5b+c RNA; experiment: as above
# [10] = test system: SARS-CoV-2 3_SL3base RNA; experiment: as above
# [11] = test system: SARS-CoV-2 5_SL5stem RNA; experiment: waterLOGSY factor (bound vs free ligand) (ratio); higher = stronger binding
# [12] = test system: SARS-CoV-2 5_SL5stem RNA; experiment: T2 signal reduction relative to ligand without RNA (fraction); higher = stronger binding
# [13] = test system: SARS-CoV-2 3_SL1+2 RNA; experiment: as above
# [14] = test system: SARS-CoV-2 3_SL1 RNA; experiment: as above
smiles,measurement,setting,value
CCNCc1cccc2[nH]ccc12,T2 signal reduction,[1],0.38
CCCc1nnc(NC(=O)c2ccccn2)s1,T2 signal reduction,[1],0.86
O=C(OCc1ccc(Cl)cc1)c1cccnc1,T2 signal reduction,[2],0.23
same,T2 signal reduction,[1],0.22
Cc1ccccc1OCC(=O)Nc1ncccn1,T2 signal reduction,[1],0.2
c1ccc(-c2ccc(-n3cnnn3)cc2)cc1,waterLOGSY factor,[3],7.53
same,waterLOGSY factor,[4],7.1
same,waterLOGSY factor,[5],4.53
same,T2 signal reduction,[6],0.39
CCN(C)C(=O)c1cccc(N)c1,waterLOGSY factor,[7],1.14
CNC(=O)c1nc2ccccc2c(=O)[nH]1,T2 signal reduction,[2],0.51
same,T2 signal reduction,[1],0.48
O=C(Nc1cccnc1)c1cnn2cccnc12,T2 signal reduction,[2],0.31
same,T2 signal reduction,[8],0.97
COc1ccc(CN)cc1OC,T2 signal reduction,[9],0.24
c1ccc(NCC2CCNC2)nc1 (stereo not given),waterLOGSY factor,[4],0.897
same,waterLOGSY factor,[5],2.48
same,T2 signal reduction,[1],0.68
same,T2 signal reduction,[9],0.33
Cc1ccccc1OCC(=O)Nc1ccccc1,waterLOGSY factor,[5],2.82
same,T2 signal reduction,[2],0.3
same,T2 signal reduction,[8],0.39
CC(N)c1ccc(-c2cncnc2)cc1 (stereo not given),T2 signal reduction,[2],0.16
same,T2 signal reduction,[1],0.52
CC(C)c1ccc(C(=O)Nc2nncs2)cc1,T2 signal reduction,[2],0.5
same,T2 signal reduction,[8],0.53
Cc1ccc(-c2noc(CNC(C)C)n2)cc1,waterLOGSY factor,[4],0.746
same,T2 signal reduction,[2],0.39
same,T2 signal reduction,[10],0.52
same,T2 signal reduction,[8],0.82
c1ccc(CCNc2nc3ccccc3[nH]2)cc1,T2 signal reduction,[2],0.48
same,T2 signal reduction,[1],0.73
c1nc(N2CCC2)c2[nH]cnc2n1,T2 signal reduction,[2],0.42
same,T2 signal reduction,[1],0.4
COc1ccc(NC(=O)CN)cc1,T2 signal reduction,[1],0.83
Cc1cc(N2CCNCC2)nc(C)n1,T2 signal reduction,[1],0.7
O=C(NO)c1ccc2ccccc2n1,waterLOGSY factor,[11],0.04
same,T2 signal reduction,[1],0.55
same,T2 signal reduction,[12],0.5
CC(=O)Nc1ccc(-c2csc(N)n2)cc1,T2 signal reduction,[2],0.5
same,T2 signal reduction,[1],0.69
same,T2 signal reduction,[8],0.78
CNCc1ccc(C(F)(F)F)cc1,T2 signal reduction,[13],0.31
same,T2 signal reduction,[10],0.38
COC(=O)Nc1nc2c(C)cccc2s1,T2 signal reduction,[14],0.62
CN1CCN(c2ccc(C#N)cc2)CC1,waterLOGSY factor,[4],1.52
same,T2 signal reduction,[2],0.28
O=C(Nc1ccccn1)c1cnccn1,T2 signal reduction,[1],0.51
same,T2 signal reduction,[8],0.38
Cc1c(Cl)cccc1NC(=O)CN.Cl,T2 signal reduction,[1],0.39

# From the supplement of paper PMC8426693
